We go through 33 compounds from PubChem BioAssay AID1487 (National Center for Advancing Translational Sciences (NCATS), 2009).

Some of the results follow. The main result of the screen is listed elsewhere. These columns were measured beside it and carry no call. Compounds called inactive in the main read-out are mostly missing here. Words in brackets tell the shape of the fitted curve; partial curves, single points and poor fits give uncertain potencies.

A short description of the test: qHTS Assay for Modulators of Lamin A Splicing. The conditions noted are these: HeLa LMNA splicing GFP/RFP minigene ratio, 48 h. A digest of the protocol:
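S3 HeLa cells stably expressing lamin A-EGFP splicing minigene plus DsRed2, 600 cells/well, 48 h compound exposure at 37C. Laser-scanning cytometry; analysed as GFP (500-530 nm)/RFP (575-640 nm) total intensity ratio; 0.5% DMSO vehicle.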

Setting [1] is: measured here: GFP splicing reporter channel.
[2] abbreviates: measured here: RFP viability control channel.

As a reminder, the AC50 is the concentration giving half of the maximal activity seen. `Cc1ccc2nc(COc3ccccc3NC(=O)c3ccccc3F)cc(=O)n2c1`: under setting [1], the AC50 was 1.58 µM [rising, partial curve]. On to `Cc1ccc2c(c1)c(CC(=O)Nc1ccc(C)c(F)c1)c(C(=O)O)n2C`, for which the AC50 under setting [2] is 25.1 µM [rising, single point]. As for `CC1CCN(c2ccc(NC(=O)c3ccccc3[N+](=O)[O-])cc2)CC1`, the half-maximal activity concentration (AC50) under setting [1] was 1.78 µM [rising, full curve].

In the case of `Cc1oc(-c2cc(F)ccc2F)nc1CN1CCN(c2cnccn2)CC1`, the AC50 under setting [1] is 35.5 µM [falling, single point]. For `Cn1c(=O)n(C)c2cc([N+](=O)[O-])c(N3CCN(S(=O)(=O)c4ccc5ccccc5c4)CC3)cc21`, the AC50 under setting [2] is 2.82 µM [rising, single point]. In the case of `CCOC(=O)N1CCN(Cc2nc3cc(NC(=O)C(C)C)ccc3n2C(C)C)CC1`, the AC50 under setting [2] was 2.51 µM [rising, full curve, poor fit]. Turning to `Cc1ccc(-c2csc(NC(=O)CCNC(=O)c3ccccc3Cl)n2)cc1`, the AC50 under setting [1] is 31.6 µM [rising, single point] and the AC50 under setting [2] is 28.2 µM [rising, single point]. In the case of `COC(=O)N/N=C/c1ccc(OS(=O)(=O)c2ccc(C)cc2)c(OC)c1`, the AC50 by setting is: under setting [1], 35.5 µM [rising, single point]; under setting [2], 35.5 µM [rising, single point].

In the case of `COc1cc(/C=C/c2nc(-c3ccccc3O)n[nH]2)cc(OC)c1OC`, the AC50 under setting [2] was 25.1 µM [rising, single point]. As for `Cc1nn(C)c2c1c(C(F)(F)F)cc(=O)n2C(C)C(=O)NCCc1ccccc1` (configuration not stated), the AC50 under setting [2] is 31.6 µM [rising, single point].

Regarding `Brc1ccc(C2=CC(c3cccs3)n3ncnc3N2)cc1` (configuration not stated), under setting [2], the AC50 was 0.501 µM [falling, single point]. Turning to `Cc1cc(C)c(O)c(-c2cc(C(=O)Nc3ccc(S(=O)(=O)N4CCOCC4)cc3)[nH]n2)c1`, the AC50 is, setting by setting: under setting [1], 22.4 µM [falling, single point]; under setting [2], 25.1 µM [falling, single point].

As to `COC(=O)CN(c1ccccc1F)S(=O)(=O)c1ccc(C)cc1`, the AC50 runs as follows: under setting [1], 0.0224 µM [rising, full curve, poor fit]; under setting [2], 0.02 µM [rising, full curve, poor fit]. On to `Cc1cc(C)c2nc(NNC(=O)c3ccc(S(=O)(=O)N4CCCCC4)cc3)sc2c1`, for which the AC50 under setting [2] is 12.6 µM [rising, partial curve]. `NNC(=S)NCCc1ccccc1`: the AC50 reads like this: under setting [1], 8.91 µM [falling, partial curve]; under setting [2], 11.2 µM [falling, partial curve, poor fit]. In the case of `COc1ccc(C)cc1NC(=O)c1cc(S(=O)(=O)N2CCC(C)CC2)cn1C`, the AC50 reads like this: under setting [1], 5.01 µM [rising, full curve, poor fit]; under setting [2], 7.08 µM [rising, partial curve, poor fit].

With `O=C(COC(=O)C12CC3CC(CC(C3)C1)C2)Nc1nc2c(F)c(F)c(F)cc2s1`, the AC50 runs as follows: under setting [1], 11.2 µM [rising, single point]; under setting [2], 12.6 µM [rising, single point]. On to `CCSc1nc(-c2ccccc2)nc2c1CCCC2`, for which the AC50 by setting is: under setting [1], 0.0178 µM [falling, full curve, poor fit]; under setting [2], 0.00891 µM [falling, full curve, poor fit]. Regarding `O=C(/C=C/c1cn(-c2ccccc2)nc1-c1cccnc1)c1ccco1`, the AC50 is, setting by setting: under setting [1], 11.2 µM [falling, partial curve, poor fit]; under setting [2], 14.1 µM [falling, partial curve, poor fit].

On to `COc1ccc(C2CC(C(F)(F)F)n3nc(C(=O)NCc4cn(C)nc4C)c(Cl)c3N2)cc1` (configuration not stated), for which the AC50 under setting [2] is 31.6 µM [rising, single point].

Take `Cc1ccccc1CSCCC(=O)NCCc1ccccc1`: the AC50 under setting [2] was 1.78 µM [rising, partial curve, poor fit]. Regarding `CCc1ccc(NC(=O)C(NS(=O)(=O)c2cccc3nsnc23)c2ccccc2)cc1` (configuration not stated), the AC50 is 35.5 µM [rising, single point] under setting [1] and 31.6 µM [rising, single point] under setting [2].

On to `COC(=O)c1cc(S(=O)(=O)Nc2cccc(S(N)(=O)=O)c2)oc1C`, for which the AC50 reads like this: under setting [1], 7.08 µM [falling, full curve, poor fit]; under setting [2], 11.2 µM [falling, partial curve, poor fit].

On to `Cc1ccccc1NC(=S)NC(NC(=O)c1ccco1)C(Cl)(Cl)Cl` (configuration not stated), for which the AC50 under setting [2] is 25.1 µM [rising, partial curve, poor fit]. `Cc1cccc(NC(=O)c2sc3nc(-c4ccccc4)cn3c2C)c1C`: the AC50 under setting [1] is 10 µM [falling, partial curve, poor fit]. Turning to `O=C(CSc1n[nH]c(-c2ccccc2)n1)N1CCN(c2ccccc2F)CC1`, the AC50 under setting [1] is 0.447 µM [rising, single point].

Consider `O=C(NC(=S)Nc1ccc2c(c1)OCCO2)c1cccc2ccccc12`, for which the AC50 was 31.6 µM [rising, single point] under setting [1] and 35.5 µM [rising, single point] under setting [2]. With `Cc1ccccc1CC1(CO)CCCN(C(=O)CCCN2CCCCC2=O)C1` (configuration not stated), the AC50 under setting [1] was 0.112 µM [falling, full curve, poor fit]. For `O=C(O)CC/C(=C\c1cccc(NC(=O)c2ccccc2Cl)c1)c1nc2ccccc2s1`, the AC50 under setting [1] is 22.4 µM [rising, single point] and the AC50 under setting [2] was 20 µM [rising, single point]. `COc1ccc(-c2cn3c(n2)sc2cc(C(=O)NC4CCCCCC4)ccc23)cc1`: the AC50 under setting [1] is 17.8 µM [rising, single point]. Same read-out and setting: for `Cc1c(-n2c(SCC(=O)N(C)C3CCS(=O)(=O)C3)nc3ccccc3c2=O)c(=O)n(-c2ccccc2)n1C` (configuration not stated) the value was 2.82 µM [falling, full curve, poor fit]. In the case of `O=C(NC1CCCCC1)c1ccc(S(=O)(=O)NCc2cccnc2)cc1`, the AC50 reads like this: under setting [1], 20 µM [rising, single point]; under setting [2], 17.8 µM [rising, partial curve]. With `Cc1ccc(C(=O)OCC(=O)c2c[nH]c3ccccc23)cc1NC(=O)c1ccco1`, under setting [1], the AC50 is 20 µM [falling, partial curve, poor fit].
